This series relates to chondrocytes. The experiment in a line: Visualization of peptide internalization (TMR fluorescence). The following applies: 16 hours, fluorescence microscopy. It is filed as cell-based, human.

Data on two substances can be found in patent US20240287134A1, “PEPTIDES FOR USE AS SENOTHERAPEUTIC AGENTS” (FUNDACIÓN PROFESOR NOVOA SANTOS, priority 2019, published 2024).

On to “Nt-FKGVKDRVKGK-Ct (TMR label) [TUB1, TMR-labelled]”, for which the “subcellular location of TMR-labelled peptide” value is “located mainly at the cytoplasmic level”.

In the case of “Nt-GKSDPYHATSGALSPAKD-Ct (N-terminal TMR label) [YSA1, residues 242-259 of the C-terminal domain of Cx43; labelled at N-terminus with TMR fluorophore]”, the “subcellular location of TMR-labelled peptide” value is “located mainly at the cytoplasmic level”.
